Reference: the supplement of paper PMC11732987, “Enantioselective OTUD7B fragment discovery through chemoproteomics screening and high-throughput optimisation” (Communications Chemistry, 2025)
The other results are listed elsewhere or left out. The data scatter; read single values as rough.

The chains behind the UniProt entries cited, without tags or fusion partners. Where a name states a change or a piece, a line headed by the entry shows the natural chain unless it says otherwise.
UniProt P35626: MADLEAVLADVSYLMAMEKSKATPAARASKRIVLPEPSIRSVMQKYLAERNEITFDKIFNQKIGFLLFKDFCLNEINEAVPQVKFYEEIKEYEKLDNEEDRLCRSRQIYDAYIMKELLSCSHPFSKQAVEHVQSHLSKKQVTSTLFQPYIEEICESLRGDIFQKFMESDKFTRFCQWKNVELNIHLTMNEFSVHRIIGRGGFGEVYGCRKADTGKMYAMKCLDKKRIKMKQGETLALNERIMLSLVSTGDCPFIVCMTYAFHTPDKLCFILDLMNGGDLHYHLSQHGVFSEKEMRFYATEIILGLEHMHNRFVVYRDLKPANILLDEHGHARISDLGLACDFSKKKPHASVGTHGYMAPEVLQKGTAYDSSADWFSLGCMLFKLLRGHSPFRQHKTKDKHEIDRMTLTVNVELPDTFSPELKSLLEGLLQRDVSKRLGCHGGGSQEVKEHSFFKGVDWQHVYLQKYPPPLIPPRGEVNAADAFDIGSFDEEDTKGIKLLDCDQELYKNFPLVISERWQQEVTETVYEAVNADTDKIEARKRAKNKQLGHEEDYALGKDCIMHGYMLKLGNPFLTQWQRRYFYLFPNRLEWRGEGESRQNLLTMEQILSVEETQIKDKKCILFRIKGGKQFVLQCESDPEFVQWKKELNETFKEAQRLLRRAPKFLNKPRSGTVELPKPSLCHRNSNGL
UniProt O75600: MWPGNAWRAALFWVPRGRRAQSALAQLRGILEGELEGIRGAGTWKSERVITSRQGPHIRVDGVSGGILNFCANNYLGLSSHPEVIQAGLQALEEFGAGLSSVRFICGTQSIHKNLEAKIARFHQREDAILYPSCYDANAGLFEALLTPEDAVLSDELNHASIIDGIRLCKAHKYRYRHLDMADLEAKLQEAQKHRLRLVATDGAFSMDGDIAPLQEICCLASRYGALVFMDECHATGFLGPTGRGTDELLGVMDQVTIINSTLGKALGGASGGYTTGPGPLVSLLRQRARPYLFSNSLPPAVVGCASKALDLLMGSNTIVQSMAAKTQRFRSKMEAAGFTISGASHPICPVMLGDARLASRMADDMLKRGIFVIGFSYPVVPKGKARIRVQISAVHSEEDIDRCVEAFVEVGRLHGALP
UniProt O95749: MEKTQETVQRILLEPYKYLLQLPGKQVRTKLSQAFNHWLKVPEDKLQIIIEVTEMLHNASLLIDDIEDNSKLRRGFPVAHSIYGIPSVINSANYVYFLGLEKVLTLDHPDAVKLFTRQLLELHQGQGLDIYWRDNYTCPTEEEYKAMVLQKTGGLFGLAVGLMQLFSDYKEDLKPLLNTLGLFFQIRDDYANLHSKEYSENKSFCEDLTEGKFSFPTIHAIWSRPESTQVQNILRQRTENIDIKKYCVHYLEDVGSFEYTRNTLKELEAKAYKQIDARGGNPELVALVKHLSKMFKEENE
UniProt Q13439: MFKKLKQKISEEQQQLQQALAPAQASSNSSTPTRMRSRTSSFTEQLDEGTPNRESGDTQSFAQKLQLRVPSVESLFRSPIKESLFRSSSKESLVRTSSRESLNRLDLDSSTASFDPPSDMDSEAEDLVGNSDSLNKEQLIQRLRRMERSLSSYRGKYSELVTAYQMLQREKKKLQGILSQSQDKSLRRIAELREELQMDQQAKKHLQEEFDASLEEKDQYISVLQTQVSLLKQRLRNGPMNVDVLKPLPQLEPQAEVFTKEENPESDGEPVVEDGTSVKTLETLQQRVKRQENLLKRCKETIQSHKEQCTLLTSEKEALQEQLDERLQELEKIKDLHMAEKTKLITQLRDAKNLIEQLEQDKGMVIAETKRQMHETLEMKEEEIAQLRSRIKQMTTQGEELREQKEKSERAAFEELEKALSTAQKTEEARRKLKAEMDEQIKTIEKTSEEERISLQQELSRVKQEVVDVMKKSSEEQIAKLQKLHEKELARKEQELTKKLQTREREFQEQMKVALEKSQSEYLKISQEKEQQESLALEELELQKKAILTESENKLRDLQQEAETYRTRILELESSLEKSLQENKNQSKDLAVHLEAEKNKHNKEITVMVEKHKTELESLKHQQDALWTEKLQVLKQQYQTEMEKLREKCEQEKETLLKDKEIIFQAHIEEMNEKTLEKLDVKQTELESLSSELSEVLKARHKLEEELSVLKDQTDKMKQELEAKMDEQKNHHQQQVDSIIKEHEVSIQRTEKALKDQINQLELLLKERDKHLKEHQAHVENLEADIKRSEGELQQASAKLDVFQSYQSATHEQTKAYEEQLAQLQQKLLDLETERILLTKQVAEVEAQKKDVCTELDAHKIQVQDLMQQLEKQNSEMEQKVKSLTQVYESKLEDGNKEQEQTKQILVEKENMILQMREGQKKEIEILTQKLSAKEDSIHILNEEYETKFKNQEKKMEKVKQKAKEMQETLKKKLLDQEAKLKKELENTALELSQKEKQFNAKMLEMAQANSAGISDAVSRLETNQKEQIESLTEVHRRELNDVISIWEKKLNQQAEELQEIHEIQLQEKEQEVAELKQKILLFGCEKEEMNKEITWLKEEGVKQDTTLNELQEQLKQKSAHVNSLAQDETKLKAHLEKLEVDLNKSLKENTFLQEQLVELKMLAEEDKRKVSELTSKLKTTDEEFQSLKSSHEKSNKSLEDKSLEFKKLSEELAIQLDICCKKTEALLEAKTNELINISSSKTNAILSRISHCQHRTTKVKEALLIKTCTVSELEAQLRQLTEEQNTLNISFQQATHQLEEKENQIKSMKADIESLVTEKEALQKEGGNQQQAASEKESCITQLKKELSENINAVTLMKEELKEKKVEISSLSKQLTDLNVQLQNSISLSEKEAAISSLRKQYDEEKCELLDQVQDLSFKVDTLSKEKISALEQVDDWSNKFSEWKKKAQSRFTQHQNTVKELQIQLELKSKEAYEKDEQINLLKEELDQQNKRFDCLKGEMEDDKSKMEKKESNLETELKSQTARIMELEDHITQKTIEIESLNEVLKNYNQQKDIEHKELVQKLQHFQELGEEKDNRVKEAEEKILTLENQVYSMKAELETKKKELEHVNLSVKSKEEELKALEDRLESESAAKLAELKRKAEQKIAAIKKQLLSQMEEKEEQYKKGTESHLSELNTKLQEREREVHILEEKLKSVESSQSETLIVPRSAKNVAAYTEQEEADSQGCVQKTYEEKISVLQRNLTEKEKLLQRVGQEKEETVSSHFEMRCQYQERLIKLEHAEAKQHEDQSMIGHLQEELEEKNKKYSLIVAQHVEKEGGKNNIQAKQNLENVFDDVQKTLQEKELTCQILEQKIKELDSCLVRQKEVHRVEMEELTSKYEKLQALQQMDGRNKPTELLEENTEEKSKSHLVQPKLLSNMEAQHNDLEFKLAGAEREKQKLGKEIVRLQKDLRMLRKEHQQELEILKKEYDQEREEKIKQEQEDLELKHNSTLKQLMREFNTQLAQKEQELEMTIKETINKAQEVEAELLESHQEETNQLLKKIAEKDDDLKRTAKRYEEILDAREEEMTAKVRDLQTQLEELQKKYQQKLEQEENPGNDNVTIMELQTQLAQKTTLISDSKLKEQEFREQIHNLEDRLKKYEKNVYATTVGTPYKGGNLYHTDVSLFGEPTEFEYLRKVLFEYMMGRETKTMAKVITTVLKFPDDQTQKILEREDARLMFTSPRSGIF
UniProt Q8NEC7: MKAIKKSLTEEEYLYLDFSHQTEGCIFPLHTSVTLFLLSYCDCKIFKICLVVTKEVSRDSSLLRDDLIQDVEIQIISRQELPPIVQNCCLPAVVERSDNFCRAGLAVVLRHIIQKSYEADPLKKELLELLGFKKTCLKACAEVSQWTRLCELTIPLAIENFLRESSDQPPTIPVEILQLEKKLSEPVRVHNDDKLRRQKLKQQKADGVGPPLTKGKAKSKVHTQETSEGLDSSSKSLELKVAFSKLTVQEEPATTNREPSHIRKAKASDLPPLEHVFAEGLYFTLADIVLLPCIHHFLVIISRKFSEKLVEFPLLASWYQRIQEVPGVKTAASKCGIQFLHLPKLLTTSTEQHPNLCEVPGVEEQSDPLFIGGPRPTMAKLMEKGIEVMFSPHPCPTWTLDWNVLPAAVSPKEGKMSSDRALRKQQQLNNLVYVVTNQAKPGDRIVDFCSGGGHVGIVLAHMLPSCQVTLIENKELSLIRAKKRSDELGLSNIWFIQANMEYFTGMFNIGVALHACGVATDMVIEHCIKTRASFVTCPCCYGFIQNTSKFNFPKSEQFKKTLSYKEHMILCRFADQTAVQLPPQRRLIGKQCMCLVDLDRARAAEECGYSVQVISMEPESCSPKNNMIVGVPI
UniProt Q7Z2K8: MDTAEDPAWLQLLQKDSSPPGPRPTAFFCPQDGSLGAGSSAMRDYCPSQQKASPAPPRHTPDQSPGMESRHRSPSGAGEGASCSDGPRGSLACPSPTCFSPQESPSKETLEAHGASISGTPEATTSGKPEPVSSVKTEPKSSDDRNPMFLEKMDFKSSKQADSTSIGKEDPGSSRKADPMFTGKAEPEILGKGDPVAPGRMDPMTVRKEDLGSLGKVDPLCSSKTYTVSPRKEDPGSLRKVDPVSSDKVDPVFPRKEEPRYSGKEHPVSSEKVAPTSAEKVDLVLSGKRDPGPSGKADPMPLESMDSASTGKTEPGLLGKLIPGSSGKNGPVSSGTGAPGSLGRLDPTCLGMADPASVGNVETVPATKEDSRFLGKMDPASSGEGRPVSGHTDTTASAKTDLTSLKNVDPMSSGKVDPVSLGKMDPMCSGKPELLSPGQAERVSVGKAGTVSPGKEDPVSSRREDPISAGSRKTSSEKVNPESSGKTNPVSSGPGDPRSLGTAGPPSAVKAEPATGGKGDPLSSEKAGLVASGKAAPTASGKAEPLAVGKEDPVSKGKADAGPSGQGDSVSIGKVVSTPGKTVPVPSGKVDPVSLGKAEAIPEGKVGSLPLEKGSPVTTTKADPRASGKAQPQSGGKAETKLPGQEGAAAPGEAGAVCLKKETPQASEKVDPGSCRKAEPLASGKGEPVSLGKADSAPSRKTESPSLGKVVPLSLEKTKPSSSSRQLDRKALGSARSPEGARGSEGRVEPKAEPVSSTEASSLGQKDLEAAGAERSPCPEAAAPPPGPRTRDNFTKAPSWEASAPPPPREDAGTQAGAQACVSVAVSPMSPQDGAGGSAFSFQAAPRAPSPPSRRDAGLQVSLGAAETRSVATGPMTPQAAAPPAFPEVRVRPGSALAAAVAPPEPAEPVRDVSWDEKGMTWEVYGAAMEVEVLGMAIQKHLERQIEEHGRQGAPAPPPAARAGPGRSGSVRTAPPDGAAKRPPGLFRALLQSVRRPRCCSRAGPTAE
UniProt Q9BYB4: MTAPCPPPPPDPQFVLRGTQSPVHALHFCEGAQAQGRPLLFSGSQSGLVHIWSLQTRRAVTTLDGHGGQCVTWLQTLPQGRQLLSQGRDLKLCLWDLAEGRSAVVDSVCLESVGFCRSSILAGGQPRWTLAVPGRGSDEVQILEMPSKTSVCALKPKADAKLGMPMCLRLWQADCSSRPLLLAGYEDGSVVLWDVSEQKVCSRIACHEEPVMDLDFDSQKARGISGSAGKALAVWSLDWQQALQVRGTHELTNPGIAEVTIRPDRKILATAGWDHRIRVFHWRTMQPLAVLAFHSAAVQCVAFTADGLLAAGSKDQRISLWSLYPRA
UniProt P15170, whole entry, looked up: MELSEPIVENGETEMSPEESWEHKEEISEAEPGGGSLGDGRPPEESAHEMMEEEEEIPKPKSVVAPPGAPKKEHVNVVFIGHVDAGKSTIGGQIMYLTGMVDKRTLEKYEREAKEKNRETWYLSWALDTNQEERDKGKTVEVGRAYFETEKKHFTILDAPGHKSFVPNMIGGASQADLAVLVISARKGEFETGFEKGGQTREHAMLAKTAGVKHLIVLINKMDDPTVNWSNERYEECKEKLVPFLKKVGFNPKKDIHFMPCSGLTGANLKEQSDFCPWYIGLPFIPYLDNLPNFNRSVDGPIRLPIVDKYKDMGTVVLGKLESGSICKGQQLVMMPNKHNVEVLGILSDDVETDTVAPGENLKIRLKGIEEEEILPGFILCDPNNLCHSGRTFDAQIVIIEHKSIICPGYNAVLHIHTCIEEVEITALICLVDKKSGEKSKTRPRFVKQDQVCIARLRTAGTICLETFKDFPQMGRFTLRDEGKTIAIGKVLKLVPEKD
UniProt Q9NZC3: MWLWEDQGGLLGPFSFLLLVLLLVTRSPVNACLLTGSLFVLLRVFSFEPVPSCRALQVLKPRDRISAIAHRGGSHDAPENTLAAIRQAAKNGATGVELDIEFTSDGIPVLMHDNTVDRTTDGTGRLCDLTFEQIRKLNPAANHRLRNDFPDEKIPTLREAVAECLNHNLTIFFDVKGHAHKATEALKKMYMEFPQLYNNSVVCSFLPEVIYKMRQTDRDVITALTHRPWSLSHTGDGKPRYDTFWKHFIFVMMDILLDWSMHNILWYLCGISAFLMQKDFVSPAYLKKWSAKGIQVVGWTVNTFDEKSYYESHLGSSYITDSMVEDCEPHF

What follows are targets tested with ClCC(=O)N[C@H]1CCCc2ccccc12 (assay: log2 mean competition ratio of IA-DTB cysteine labelling (DMSO/compound) (log2 ratio); higher = stronger cysteine engagement by compound). Conditions: 50 µM; treatment time: 4 h; cell line lysate: HEK293T.
Procedure: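 IA-DTB competitive cysteine chemoproteomics in HEK293T RIPA lysate. Lysates were treated with compound 29 or 30 at 50 or 200 µM for 4 h, then IA-DTB (500 µM, 1 h), trypsin-digested, NeutrAvidin-enriched and analysed by diaPASEF. Competition ratio = intensity DMSO / intensity compound (n=4 treated, n=64 DMSO); binding: mean log2 CR ≥ 1 and p ≤ 0.05 plus QC filters. Target is the cysteine site.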

| Target | log2 mean competition ratio |
| --- | --- |
| GDI2 C282 | -0.257 |
| GCFC2 C320 (UniProt P16383) | 0.495 |
| GRK3 C340 (UniProt P35626) | -0.348 |
| GGA2 C343 (UniProt Q9UJY4) | 0.399 |
| GCAT C404 (UniProt O75600) | -0.276 |
| GGPS1 C138 (UniProt O95749) | 0.0632 |
| GOLGA4 C1849 (UniProt Q13439) | -0.667 |
| GSTCD C140 (UniProt Q8NEC7) | 0.505 |
| GPRIN1 C428 (UniProt Q7Z2K8) | -0.708 |
| GNB1L C5 (UniProt Q9BYB4) | 0.0956 |
| GPD1L C216 (UniProt Q8N335) | 0.0709 |
| GPD2 C385 (UniProt P43304) | -0.531 |
| GIGYF2 C573 (UniProt Q6Y7W6) | 0.0723 |
| GLRX3 C229 (UniProt O76003) | -0.355 |
| GIT2 C122 (UniProt Q14161) | -0.312 |
| GCN1 C2558 (UniProt Q92616) | -0.177 |
| GSPT1 C327 (UniProt P15170) | 0.084 |
| GDE1 C53 (UniProt Q9NZC3) | -0.0435 |
| GET4 C160 (UniProt Q7L5D6) | -0.0496 |
| GEMIN5 C793 (UniProt Q8TEQ6) | -0.227 |

Same assay, conditions: 200 µM; treatment time: 4 h; cell line lysate: HEK293T

| Target | log2 mean competition ratio |
| --- | --- |
| GDI2 C282 | 0.261 |
| GCFC2 C320 (UniProt P16383) | 0.964 |
| GRK3 C340 (UniProt P35626) | -0.0378 |
| GGA2 C343 (UniProt Q9UJY4) | 0.397 |
| GCAT C404 (UniProt O75600) | 0.0746 |
| GGPS1 C138 (UniProt O95749) | -0.367 |
| GOLGA4 C1849 (UniProt Q13439) | -0.062 |
| GSTCD C140 (UniProt Q8NEC7) | 0.187 |
| GPRIN1 C428 (UniProt Q7Z2K8) | 0.195 |
| GNB1L C5 (UniProt Q9BYB4) | 0.136 |
| GPD1L C216 (UniProt Q8N335) | 0.275 |
| GPD2 C385 (UniProt P43304) | -0.0552 |
| GIGYF2 C573 (UniProt Q6Y7W6) | -0.0166 |
| GLRX3 C229 (UniProt O76003) | 0.199 |
| GIT2 C122 (UniProt Q14161) | 0.135 |
| GCN1 C2558 (UniProt Q92616) | -0.0281 |
| GSPT1 C327 (UniProt P15170) | -0.0842 |
| GDE1 C53 (UniProt Q9NZC3) | -0.144 |
| GET4 C160 (UniProt Q7L5D6) | -0.265 |
| GEMIN5 C793 (UniProt Q8TEQ6) | 0.209 |
